Measurements: PubChem BioAssay AID2685 (National Center for Advancing Translational Sciences (NCATS), 2010)
Some of the results follow. Further columns of the screen follow, without active or inactive calls. Most of these compounds were active or inconclusive in the main read-out, so they are no random draw. Potencies come from curve fits of mixed quality, noted in brackets.

Assay: qHTS Assay for Lipid Storage Modulators in Drosophila S3 Cells;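 on cell number change: cells counted by Cell Tracker Red CMTPX staining in the red channel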
Conditions: BODIPY lipid droplet fluorescence, 18-24 h; for cell number change: measured here: cell count max response, cells fed with added oleic acid
Method in brief: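 Drosophila S3 cells got compounds at several concentrations plus oleic acid (400 uM solution). Laser-scanning cytometry with 488 nm excitation read lipid droplets at 500-530 nm and cells at 575-640 nm. Percent activity was relative to 20 uM Triacsin C.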

[1] = measured here: lipid fluorescence (Fed channel) AC50, cells fed with added oleic acid
[2] = measured here: cell number channel AC50, cells fed with added oleic acid

| SMILES | cell number change [%] | AC50 [1] | AC50 [2] |
| --- | --- | --- | --- |
| C=CCOc1c(Br)cc(CNc2ccc3[nH]c(=O)[nH]c3c2)cc1OCC | -28.7 | 0.326 µM [falling, full curve, poor fit] | – |
| CC(OC(=O)c1ccc2c(c1)OCO2)C(=O)NC1CCCCC1C (stereo not drawn) | 4.38 | – | – |
| COc1ccc(N2C(=O)C(F)(F)C2c2cccc(F)c2)cc1 (stereo not drawn) | -5.6 | 1.64 µM [falling, partial curve] | – |
| Cc1cccc(N(CC(=O)NCc2ccco2)C(=O)CCC(=O)Nc2ccccn2)c1 | -8.93 | – | 0.00411 µM [falling, full curve, poor fit] |
| Cc1nc2ccccc2nc1OCC(=O)Nc1ccccc1 | -6.69 | 0.731 µM [rising, partial curve, poor fit] | 0.731 µM [rising, partial curve, poor fit] |
| CCOc1cc(C(=O)NCCCn2ccnc2)cc(OCC)c1OCC | 24.7 | 13 µM [rising, partial curve] | – |
| CCOC(=O)N1CCN(C(=O)COC(=O)CNC(=O)c2ccc(OCC)c(OCC)c2)CC1 | -24.5 | – | – |
| CCOC(=O)c1ccc(NC(=O)CN(c2ccc(C)cc2)S(=O)(=O)c2c(C)n[nH]c2C)cc1 | -2.08 | – | 0.00517 µM [falling, full curve, poor fit] |
| Cc1nnc(NC(=O)C2CCN(c3cnccn3)CC2)s1 | 54.3 | 25.9 µM [rising, partial curve] | 29.1 µM [rising, single point] |
| O=C(/C=C/c1ccc(F)cc1)N1CCc2ccccc2C1 | – | 9.2 µM [rising, partial curve] | – |
| CCN(CC)CCCN1C(=O)C(=O)/C(=C(/O)c2ccc(C)cc2)C1c1ccccn1 (stereo not drawn) | 4.43 | – | – |
| C=CCn1c(SCC(=O)NC2CCCC2)nc2scc(-c3ccco3)c2c1=O | 14.7 | 0.651 µM [rising, partial curve, poor fit] | – |
| CN1CCN(S(=O)(=O)c2ccc(Br)c3nsnc23)CC1 | -25.6 | – | – |
| CN1CCN(S(=O)(=O)c2ccc(N3CCN(S(=O)(=O)/C=C/c4ccccc4)CC3)nc2)CC1 | -37.6 | – | 29.1 µM [falling, single point] |
| Cc1ccc(CNC(=O)c2cc(S(=O)(=O)N3CCOCC3)cn2C)cc1 | 12.4 | 29.1 µM [rising, single point] | – |
| CCC(C(=O)O/N=C(\N)c1ccc(Cl)cc1)c1ccccc1 (stereo not drawn) | -10.4 | 0.461 µM [falling, full curve, poor fit] | – |
| COc1ccc(-c2c/c(=N\c3nc(-c4ccccc4)c(C)s3)c3ccccc3o2)cc1O | -89.1 | – | 29.1 µM [falling, single point] |
| O=C(N/N=C/c1ccc(OCc2ccccc2)cc1)c1cccs1 | -24.5 | 0.00517 µM [falling, full curve, poor fit] | – |
| O=C1/C(=C\c2ccc(Br)o2)Cc2ccccc21 | 18.7 | 0.731 µM [rising, single point] | – |

| SMILES | cell number change [%] | AC50 [1] | AC50 [2] |
| --- | --- | --- | --- |
| O=C(c1ccco1)N1CCN(CCOCCOc2cccc3ccccc23)CC1 | 22.7 | 6.51 µM [falling, single point] | – |
| O=C(COC(=O)CCN1C(=O)c2ccccc2C1=O)Nc1ccccc1[N+](=O)[O-] | 31.4 | 29.1 µM [rising, partial curve, poor fit] | – |
| Cc1ccc2nc(NC(=O)CCn3cccc3)sc2c1 | 36.9 | – | – |
| COc1ccc(-c2nc(SC(C)C(=O)c3c(N)n(C)c(=O)n(C)c3=O)n[nH]2)cc1 (stereo not drawn) | 9.34 | 36.6 µM [falling, partial curve, poor fit] | – |
| CCSc1nc(C)c(C)c(=O)[nH]1 | 1.34 | 13 µM [falling, partial curve] | – |
| COc1cc(NC(=O)Cn2nnc(-c3ccncc3)n2)cc(OC)c1 | 20.1 | 6.51 µM [rising, single point] | 4.11 µM [rising, full curve, poor fit] |
| CCC/C=N/NC(=O)c1cc(Br)ccc1O | -15.6 | 1.03 µM [falling, full curve, poor fit] | – |
| CN(C)CCCN(C(=O)c1ccc(C(=O)c2ccccc2)cc1)c1nc2ccc(F)cc2s1 | 10.4 | – | – |
| O=C(NCCc1ccccc1)C1CCC(CNc2nc(=S)[nH]c3ccccc23)CC1 (stereo not drawn) | 72.2 | 29.1 µM [rising, single point] | 18.4 µM [rising, single point] |
| O=C(CCC1CCCCC1)Nc1cccnc1 | 32.9 | – | 0.731 µM [rising, full curve, poor fit] |
| COc1ccc(-c2cc(C3CCN(c4ncccc4[N+](=O)[O-])CC3)[nH]n2)cc1 | – | 29.1 µM [rising, single point] | 6.51 µM [rising, single point] |
| Cc1ccc(S(=O)(=O)N(Cc2ccccc2)c2ccccn2)cc1[N+](=O)[O-] | 10.1 | 0.164 µM [rising, full curve, poor fit] | – |
| COc1ccc(N(CC(=O)NCCc2ccccc2)C(=O)CCC(=O)Nc2nccs2)cc1 | 7.94 | 0.651 µM [falling, partial curve, poor fit] | – |
| COc1ccc(C(c2nnnn2C(C)(C)C)N2CCN(C)CC2)cc1OC (stereo not drawn) | -27.8 | 18.4 µM [falling, partial curve] | 4.11 µM [falling, full curve, poor fit] |
| COc1ccc(CNS(=O)(=O)c2ccc(-c3ccc(=O)[nH]n3)s2)cc1OC | -28.1 | 23.1 µM [falling, single point] | – |
| N#CCCSc1ccccc1NC(=O)c1cc(=O)c2ccccc2o1 | 34 | – | 10.3 µM [rising, single point] |
| COc1ccc(CCn2c(=N)c(S(=O)(=O)c3ccc(C)cc3)cc3c(=O)n4ccccc4nc32)cc1 | -2.59 | 0.651 µM [rising, single point] | – |
| OCC[C@H]1C[C@@H](O)[C@H](O)[C@]2(Cc3ccccc3O2)O1 | -8.8 | – | – |
| CCCCSc1nnc2c(n1)[nH]c1ccccc12 | 5.16 | 29.1 µM [rising, single point] | – |

Already shown: an excerpt of the list.

| SMILES | cell number change [%] | AC50 [1] | AC50 [2] |
| --- | --- | --- | --- |
| O=C(CCC1CCCCC1)Nc1cccnc1 | 32.9 | – | 0.731 µM [rising, full curve, poor fit] |
| COc1ccc(-c2cc(C3CCN(c4ncccc4[N+](=O)[O-])CC3)[nH]n2)cc1 | – | 29.1 µM [rising, single point] | 6.51 µM [rising, single point] |
